The test system of this assay is P388 leukemia ip, CD2F1 mice, survival T/C. In words: NCI In Vivo Anticancer Drug Screen. Data for tumor model P388 Leukemia (intraperitoneal) in CD2F1 (CDF1) mice. The conditions noted are these: T/C endpoint: median survival time, higher T/C = longer survival.
The mark [1] stands for this setting: dose: 1000.0 mg/kg/injection, schedule: Q01DX005 (ip), vehicle: water.

The record followed here is PubChem BioAssay AID330 (DTP/NCI, 2004).

Each structure is given as a SMILES string. The list is a part of this screen's results and no random one: it is rich in T/C values a quarter to a half above the control, in often repeated tests (any T/C) and in doses without a T/C. Other doses and runs of a compound stand elsewhere. T/C gives the treated animals as a percentage of the vehicle group. Some doses have a count of surviving animals in place of a T/C: the source files T/C as zero there, which appears to mark a toxic dose or a test without result, not a measured value. Some survivor counts are full or nearly so, which does not show that the dose was tolerated: the source hardly ever lists a survival T/C far under the control, and the zero likely stands for such cases as well. Counts of survivors are from the toxicity check (mostly the fifth day) where no day follows; animals may have died later. Schedule codes are those of the source, read here as Q, the interval in days (D) or hours (H), X, the number of doses. Some doses were run more than once; their values stand side by side, smallest first. Where survival is the endpoint, the PubChem record calls one and a half times the control and up active, and a quarter to a half above the control has no call in these data; cut-offs in other NCI protocols can differ. Some T/C values carry the count of animals alive at the toxicity check (mostly the fifth day); without a count, all were alive then.

Take `CNC=O`: the T/C (dose: 197.6 mg/kg/injection, schedule: Q01DX009 (ip), vehicle: saline) was 136 % of control; the T/C (dose: 296.5 mg/kg/injection, schedule: Q01DX005 (ip), vehicle: saline) is 130 % of control; the T/C (dose: 296.5 mg/kg/injection, schedule: Q01DX005 (ip), vehicle: water) was 126 % of control; the T/C (dose: 296.5 mg/kg/injection, schedule: Q01DX005 (iv), vehicle: saline) is 133 % of control; the T/C (dose: 296.5 mg/kg/injection, schedule: Q01DX005 (oral), vehicle: saline) was 132 % of control; the T/C (dose: 296.5 mg/kg/injection, schedule: Q01DX009 (ip), vehicle: saline) was 148 % of control. In addition, the T/C (dose: 296.5 mg/kg/injection, schedule: Q01DX009 (oral), vehicle: saline) was 147 % of control; the T/C (dose: 320.0 mg/kg/injection, schedule: Q01DX005 (ip), vehicle: water) is 134 % of control [5 of 6 alive]; the T/C (dose: 444.5 mg/kg/injection, schedule: Q01DX005 (ip), vehicle: saline) is 138 % of control; the T/C (dose: 444.5 mg/kg/injection, schedule: Q01DX005 (ip), vehicle: water) is 142 % of control; the T/C (dose: 444.5 mg/kg/injection, schedule: Q01DX005 (iv), vehicle: saline) is 146 % of control; the T/C (dose: 444.5 mg/kg/injection, schedule: Q01DX005 (oral), vehicle: saline) was 144 % of control. Further, the T/C (dose: 640.0 mg/kg/injection, schedule: Q01DX005 (ip), vehicle: water) is 142 and 145 % of control; the T/C (dose: 666.7 mg/kg/injection, schedule: Q01DX005 (ip), vehicle: water) is 125 % of control; the T/C (dose: 666.7 mg/kg/injection, schedule: Q01DX005 (iv), vehicle: saline) was 147 % of control; the T/C (dose: 666.7 mg/kg/injection, schedule: Q01DX005 (oral), vehicle: saline) was 137 % of control; the T/C (dose: 1000.0 mg/kg/injection, schedule: Q01DX005 (ip), vehicle: saline) is 130 % of control; the T/C under setting [1] is 136 % of control. For the same molecule, the T/C reads like this: (dose: 1280.0 mg/kg/injection, schedule: Q01DX005 (ip), vehicle: water) 143 % of control [5 of 6 alive]; (dose: 1500.0 mg/kg/injection, schedule: Q01DX001 (iv), vehicle: saline) 129 % of control; (dose: 1500.0 mg/kg/injection, schedule: Q01DX001 (oral), vehicle: saline) 128 % of control; (dose: 2250.0 mg/kg/injection, schedule: Q01DX001 (oral), vehicle: saline) 138 % of control. Also, the survivor count runs as follows: under setting [1], 3 of 5; (dose: 1000.0 mg/kg/injection, schedule: Q01DX009 (ip), vehicle: saline) 10 of 10; (dose: 1500.0 mg/kg/injection, schedule: Q01DX009 (oral), vehicle: saline) 10 of 10.

As to `CCCCCCCCCCCCCCS[As](C)C`, the survivor count (dose: 200.0 mg/kg/injection, schedule: Q04DX002 (ip), vehicle: Klucel (hydroxypropylcellulose) (HPC)) is listed as 5 of 5.

For the molecule `CCOC(=O)Nc1nc2ccc(SC#N)cc2s1`, the survivor count runs as follows: (dose: 50.0 mg/kg/injection, schedule: Q01DX009 (ip), vehicle: Klucel (hydroxypropylcellulose) (HPC)) 6 of 6; (dose: 100.0 mg/kg/injection, schedule: Q01DX009 (ip), vehicle: Klucel (hydroxypropylcellulose) (HPC)) 6 of 6; (dose: 200.0 mg/kg/injection, schedule: Q01DX009 (ip), vehicle: Klucel (hydroxypropylcellulose) (HPC)) 0 of 6.

Consider `Cc1oc2ccccc2c(=O)c1CN1CCN(c2ccccn2)CC1`, for which the survivor count (dose: 240.0 mg/kg/injection, schedule: Q01DX005 (ip), vehicle: saline) was 0 of 6.

As for `CCOc1c(N=Nc2ccc([N+](=O)[O-])cc2)c(C)nn1C(=S)SC`, the survivor count (dose: 15.0 mg/kg/injection, schedule: Q01DX005 (ip), vehicle: Klucel (hydroxypropylcellulose) (HPC)) is given as 6 of 6; the survivor count (dose: 30.0 mg/kg/injection, schedule: Q01DX005 (ip), vehicle: Klucel (hydroxypropylcellulose) (HPC)) is recorded as 6 of 6; the survivor count (dose: 60.0 mg/kg/injection, schedule: Q01DX005 (ip), vehicle: Klucel (hydroxypropylcellulose) (HPC)) was 5 of 6; the survivor count (dose: 120.0 mg/kg/injection, schedule: Q01DX005 (ip), vehicle: Klucel (hydroxypropylcellulose) (HPC)) is recorded as 6 of 6.

For the molecule `CCC(=O)OCC(=O)[C@]1(O)Cc2c(O)c3c(c(O)c2[C@@H](OC2CC(N)C(O)C(C)O2)C1)C(=O)c1c(OC)cccc1C3=O` (some centres not stated), the T/C is, setting by setting: (dose: 0.25 mg/kg/injection, schedule: Q01DX009 (ip), vehicle: saline) 125 % of control [9 of 10 alive]; (dose: 0.5 mg/kg/injection, schedule: Q01DX009 (ip), vehicle: saline) 133 % of control; (dose: 1.0 mg/kg/injection, schedule: Q01DX009 (ip), vehicle: saline) 142 % of control; (dose: 2.0 mg/kg/injection, schedule: Q01DX009 (ip), vehicle: saline) 149 % of control. Besides, for the setting “dose: 8.0 mg/kg/injection, schedule: Q01DX009 (ip), vehicle: saline”, the survivor count is reported as 10 of 10.

Regarding `CN(C)CCSc1nnc(N)s1`, under “dose: 400.0 mg/kg/injection, schedule: Q01DX001 (ip), vehicle: saline”, the survivor count is on record as 0 of 6.

Take `Nc1nccc2c1ncn2C1OC(CO)C(O)C1O` (configuration not stated): where the note is “dose: 18.75 mg/kg/injection, schedule: Q03HX024 (ip), vehicle: saline with Tween-80”, the T/C is 128 % of control. In addition, the survivor count (dose: 50.0 mg/kg/injection, schedule: Q01DX009 (ip), vehicle: saline with Tween-80) is 3 of 6 and 6 of 6; the survivor count (dose: 75.0 mg/kg/injection, schedule: Q03HX024 (ip), vehicle: saline with Tween-80) was 3 of 6 and 6 of 6; the survivor count (dose: 150.0 mg/kg/injection, schedule: Q03HX024 (ip), vehicle: saline with Tween-80) was 1 of 6 and 3 of 6; the survivor count (dose: 300.0 mg/kg/injection, schedule: Q03HX024 (ip), vehicle: saline with Tween-80) is recorded as 0 of 6; the survivor count (dose: 400.0 mg/kg/injection, schedule: Q01DX009 (ip), vehicle: saline with Tween-80) was 0 of 6 and 5 of 6.

For `c1cc2c3c(c1)c1cc4c(cc1c[n+]3CC2)OCO4`, the T/C is 127 % of control (dose: 6.25 mg/kg/injection, schedule: Q01DX009 (ip), vehicle: water) and 142 % of control (dose: 12.5 mg/kg/injection, schedule: Q01DX009 (ip), vehicle: water). Further, the survivor count is recorded as 0 of 6 (dose: 50.0 mg/kg/injection, schedule: Q01DX009 (ip), vehicle: other); 2 of 6 (dose: 50.0 mg/kg/injection, schedule: Q01DX009 (ip), vehicle: water); 0 of 6 (dose: 100.0 mg/kg/injection, schedule: Q01DX009 (ip), vehicle: other); 0 of 6 (dose: 100.0 mg/kg/injection, schedule: Q01DX009 (ip), vehicle: water); 0 of 6 (dose: 200.0 mg/kg/injection, schedule: Q01DX009 (ip), vehicle: other); 0 of 6 (dose: 400.0 mg/kg/injection, schedule: Q01DX009 (ip), vehicle: other).

As for `CC(C)NC(=O)OCc1cc(-c2ccccc2)n(C)c1-c1ccccc1`, the survivor count by setting is: (dose: 100.0 mg/kg/injection, schedule: Q01DX009 (ip), vehicle: distilled water + Tween-80) 5 of 6; (dose: 200.0 mg/kg/injection, schedule: Q01DX009 (ip), vehicle: distilled water + Tween-80) 0 of 6.

In the case of `CCN(CC)c1nc(Cl)nc(N(CC)CC)n1`, for the setting “dose: 400.0 mg/kg/injection, schedule: Q01DX005 (ip), vehicle: saline with Tween-80”, the survivor count is given as 3 of 6.

For `CC(C)C(N)C(=O)NC(C(=O)O)C(C)C` (configuration not stated), the survivor count (dose: 50.0 mg/kg/injection, schedule: Q01DX005 (ip), vehicle: saline) is reported as 5 of 5 and the survivor count (dose: 200.0 mg/kg/injection, schedule: Q01DX005 (ip), vehicle: saline) is listed as 5 of 5.

On to `Clc1ccc2nsnc2c1`, for which the survivor count by setting is: (dose: 25.0 mg/kg/injection, schedule: Q01DX009 (ip), vehicle: saline with Tween-80) 4 of 6; (dose: 400.0 mg/kg/injection, schedule: Q01DX009 (ip), vehicle: Klucel (hydroxypropylcellulose) (HPC)) 2 of 6.

Turning to `COC(CNC(=O)Nc1cccnc1)[CH2][Hg][Cl]` (configuration not stated), the survivor count (dose: 100.0 mg/kg/injection, schedule: Q04DX003 (ip), vehicle: saline with Tween-80) is reported as 1 of 6.
